Assay results from PubChem BioAssay AID504834 (National Center for Advancing Translational Sciences (NCATS), 2011).
Screen size: about 320,000 compounds; about 22,000 (6.9%) were called active. The inconclusive results got no clear call from the source; some entries with a clear call stand among them for comparison. The call rests on the fitted dose curve; in most records, active means well fitted inhibition curve with a large enough effect; inconclusive means small, poorly fitted or top-dose-only effect, or another doubt; inactive means no such curve, though single readings can be large or run the other way. A potency beside an inconclusive call is a rough fit, not a confirmed value.

experiment: Primary qHTS for delayed death inhibitors of the malarial parasite plastid, 96 hour incubation; settings: P. falciparum luciferase reporter growth; series mostly up to 28.7 µM
Outline: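 Erythrocytes infected with luciferase-expressing P. falciparum were dispensed at 2% hematocrit and 0.05% parasitemia (final), then incubated with compounds 96 hours at 37 C in 5% CO2. Luminescence after detection reagent addition reported growth.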
Potency means the concentration at half of the fitted maximal effect.

SMILES | Potency
Cc1ccc(C)c(NC(=O)CCNS(=O)(=O)c2ccc3[nH]c(=O)oc3c2)c1 | inconclusive: 14.7 µM [inhibitor, single point]
O=C(NCc1ccco1)c1ccc(Cn2c(=O)c3sccc3n(Cc3cccc(F)c3)c2=O)cc1 | active: 2.62 µM
CCCC(C(=O)N(C)CC(=O)Nc1ccc(N2CCOCC2)cc1)c1ccccc1 (stereo not drawn) | inconclusive: 16.5 µM [inhibitor, single point]
Cc1c(Cl)c(C(=O)NC2C3CC4CC(C3)CC2C4)nn1C (stereo not drawn) | inconclusive: 14.7 µM [inhibitor, partial curve, poor fit]
CCOc1ccc(-c2csc(Cn3c(CN4CCN(C)CC4)nc4ccccc4c3=O)n2)cc1 | inconclusive: 18.5 µM [inhibitor, single point]
O=C(O)c1cccc(N/N=C/c2cc(Br)cc(Br)c2O)c1 | inconclusive: 4.65 µM [inhibitor, partial curve]
Cc1cccnc1NC(=O)Nc1cccs1 | inactive
N/C(=N\OC(=O)/C=C/c1ccccc1Cl)c1cccnc1 | inconclusive: 5.22 µM [inhibitor, single point]
Cc1cc(C)c(S(=O)(=O)N2CCOC2CNC(=O)C(=O)NCc2ccco2)c(C)c1 (stereo not drawn) | inactive
COCCn1c(C)cc(/C=C2/NC(=O)N(c3cccc(Cl)c3)C2=O)c1C | inconclusive: 18.5 µM [inhibitor, single point]
O=C(CN1CCOCC1)Nc1ccccc1NC(=O)C1CCN(c2ncccn2)CC1 | inconclusive: 10.4 µM [inhibitor, single point]
CCOC(=O)c1cc2c(ccn2C)n1CC(=O)N(Cc1ccccc1)c1ccccc1 | inconclusive: 18.5 µM [inhibitor, partial curve, poor fit]
Cc1ccc(Nc2c(-c3ccc(N4CCOCC4)cc3)nc3cnccn23)cc1 | inconclusive: 16.5 µM [inhibitor, single point]
COc1ccc(/C=C/CN2CCCC(CO)(Cc3cccc(Cl)c3)C2)cc1 (stereo not drawn) | inactive
COc1ccc2c(c1)C(=O)[C@@H](OC(=O)NCc1ccc3c(c1)OCO3)[C@H](c1ccc(OC)c(Br)c1)O2 | inconclusive: 18.5 µM [inhibitor, single point]
O=C(C(=O)N1CCOCC1)c1cn(Cc2ccccc2)c2ccccc12 | inconclusive: 9.28 µM [inhibitor, single point]
O=C(NC(=S)NCC1CCCO1)c1ccc([N+](=O)[O-])cc1 (stereo not drawn) | active: 0.586 µM
Cc1ccccc1Cn1cc(NC(=O)CSc2nc3c(c(C(F)(F)F)n2)CCc2ccccc2-3)cn1 | inconclusive: 0.928 µM [inhibitor, partial curve, poor fit]

2 entries from above, as labelled records:
Cc1ccc(C)c(NC(=O)CCNS(=O)(=O)c2ccc3[nH]c(=O)oc3c2)c1
  Potency: inconclusive: 14.7 µM [inhibitor, single point]
Cc1ccccc1Cn1cc(NC(=O)CSc2nc3c(c(C(F)(F)F)n2)CCc2ccccc2-3)cn1
  Potency: inconclusive: 0.928 µM [inhibitor, partial curve, poor fit]
